The other results are listed elsewhere or left out.
Columns and labels:
Experiment in all cases: protein microarray (ProtoArray v5.0), streptavidin-Alexa Fluor 647
Conditions in all cases: 3'-biotin; 20 mM Tris (pH 7.5), 5 mM MgCl2, 100 mM KCl, 0.1% Tween-20, A/T-rich and random oligonucleotide blockers; temperature not stated; high values mean tight binding
[1] = system: ETHE1 (human)
[2] = system: ETS1 (human)
[3] = system: Elongation factor 1-gamma (human)
[4] = system: Endothelial protein C receptor (human)
[5] = system: Erythropoietin (human)
[6] = system: Eukaryotic translation initiation factor 3 subunit E (human)
[7] = system: Exocyst complex component 3 (human)
[8] = system: Ezrin (human)
[9] = system: FABP3 (human)
[10] = system: FABP7 (human)
[11] = system: FACT complex subunit SPT16 (human)
[12] = system: FAM106B (human)
[13] = system: FAM136A (human)
[14] = system: FAM26A (human)
[15] = system: FAM3A (human)
[16] = system: FAM44B (human)
[17] = system: FAM80A (human)
[18] = system: FAM82C (human)
[19] = system: FAM9C (human)
[20] = system: FANCG (human)

GGTGACAGGGGTATGGGGAGGGG [G4-2 biotinylated (Ct1)]
binding signal [1]: -0.379 z-score | binding signal [2]: -0.379 z-score | binding signal [3]: -0.397 z-score | binding signal [4]: -0.363 z-score | binding signal [5]: -0.391 z-score | binding signal [6]: -0.382 z-score | binding signal [7]: -0.399 z-score | binding signal [8]: 3.51 z-score | binding signal [9]: -0.399 z-score | binding signal [10]: -0.364 z-score | binding signal [11]: 6.76 z-score | binding signal [12]: -0.382 z-score | binding signal [13]: -0.383 z-score | binding signal [14]: -0.367 z-score | binding signal [15]: -0.378 z-score | binding signal [16]: -0.403 z-score | binding signal [17]: -0.392 z-score | binding signal [18]: -0.381 z-score | binding signal [19]: -0.36 z-score | binding signal [20]: -0.388 z-score
